1 substance from article doi:10.1101/2024.06.13.598619 can be followed below.

Amino acid sequences for entries named in this document (tags omitted).
UniProt O95721: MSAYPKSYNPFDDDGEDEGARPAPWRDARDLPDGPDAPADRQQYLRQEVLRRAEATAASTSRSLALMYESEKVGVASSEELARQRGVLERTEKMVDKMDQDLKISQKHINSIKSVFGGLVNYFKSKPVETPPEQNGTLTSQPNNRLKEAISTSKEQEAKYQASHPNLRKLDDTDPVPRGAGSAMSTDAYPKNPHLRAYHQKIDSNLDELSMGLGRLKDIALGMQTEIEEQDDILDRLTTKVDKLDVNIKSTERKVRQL
UniProt P56962: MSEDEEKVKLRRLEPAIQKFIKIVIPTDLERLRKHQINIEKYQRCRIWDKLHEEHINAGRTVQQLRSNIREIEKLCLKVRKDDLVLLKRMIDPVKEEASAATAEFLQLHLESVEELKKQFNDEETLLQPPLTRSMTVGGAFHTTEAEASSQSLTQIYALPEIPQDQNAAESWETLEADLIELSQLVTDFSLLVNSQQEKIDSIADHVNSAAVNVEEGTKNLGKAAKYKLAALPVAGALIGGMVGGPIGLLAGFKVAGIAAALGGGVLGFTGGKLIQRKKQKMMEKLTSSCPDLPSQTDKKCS

The target in this test is Myc-tagged human SNAP29 (synaptosomal-associated protein 29) (human) (UniProt O95721). As to the kind of experiment: co-IP.

Results are given in words; binding and its absence hold for the method and conditions named. In cells and extracts the contact can be indirect. Some results given as binding are weak or reduced against the parent protein; the word gives no strength.

Take “HA-tagged syntaxin17 (STX17) (from UniProt P56962 1-302)”: the binding result is reported as “binds”.
